# These are yes or no findings as the source states them, for the method shown. Tags and fused reporters may be left off the sequences shown.
# Molecular target: T1, GST-GAP (SptP GAP domain, residues 162-290) (Salmonella enterica serovar Typhimurium) (UniProt P74873)
# T1 sequence: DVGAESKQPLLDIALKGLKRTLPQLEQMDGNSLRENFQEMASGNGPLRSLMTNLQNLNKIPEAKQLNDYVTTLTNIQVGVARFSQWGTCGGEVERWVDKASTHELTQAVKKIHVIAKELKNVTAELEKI
# Assay: pull-down; GST fusions on glutathione Sepharose 4B beads in binding buffer (20 mM Tris-HCl pH 7.4, 150 mM NaCl, 1 mM MgCl2, 0.5 mM ATP, 1 mM GTP, 0.5 mM DTT), incubated with equimolar His-tagged VCP (RT, 10 min); washed; eluted with 1 M NaCl, then 10 mM reduced glutathione; Coomassie SDS-PAGE; both purified
substance,measurement,value
"His-tagged VCP (VCP^WT), recombinant (rat)",binding,no binding

# Source: PMC2724103
